Values from PubChem BioAssay AID652272 (Drosophila RNAi Screening Center, 2013).

Test: 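Finding fly genes that regulate Hedgehog signal transduction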 (primary screen)
System: Drosophila clone 8 (Cl8) cells
Reagent: long dsRNA against Drosophila genes
Measured: 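Firefly light from a Hedgehog-responsive ptc promoter reporter and Renilla reference light, both read on a plate reader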
Scale: firefly Hh reporter signal: higher = more ptc reporter light; Renilla reference signal: higher = more Renilla control light
Hit rule: 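Hit when the z-score averaged over two replicates is under -2 or over +3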
Meaning of the calls: active = hit: reporter lowered or raised; inactive = not a hit
The deposit covers about 21,000 reagents; this is an unselected part of those that have a named target and a result. Of all reagents, 503 (2.4%) got an active call. 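Raw plate light values, not normalised; calls rest on replicate z-scores that were not deposited; hits include reporter decreases as well as increases.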 Reagents against one gene are numbered here. Not stated in the record: the amount of reagent, the time to read-out.

Knock-down of to resulted in: firefly Hh reporter signal, replicate 1 = 5.96e5; firefly Hh reporter signal, replicate 2 = 1.06e5; Renilla reference signal, replicate 1 = 26819; Renilla reference signal, replicate 2 = 3217; inactive. Silencing of Mal-A6 gave: firefly Hh reporter signal, replicate 1 = 1.02e5; firefly Hh reporter signal, replicate 2 = 53049; Renilla reference signal, replicate 1 = 2297; Renilla reference signal, replicate 2 = 4380; inactive. With knock-down of sced the results were firefly Hh reporter signal, replicate 1 = 67995; firefly Hh reporter signal, replicate 2 = 60164; Renilla reference signal, replicate 1 = 2832; Renilla reference signal, replicate 2 = 2728; inactive. Against CG9467 the deposit lists firefly Hh reporter signal, replicate 1 = 1.25e5; firefly Hh reporter signal, replicate 2 = 72341; Renilla reference signal, replicate 1 = 4678; Renilla reference signal, replicate 2 = 2403; inactive. After knock-down of CG18094, the record shows firefly Hh reporter signal, replicate 1 = 81687; firefly Hh reporter signal, replicate 2 = 46304; Renilla reference signal, replicate 1 = 2305; Renilla reference signal, replicate 2 = 4080; inactive. Silencing of CG44325 #1 came out at: firefly Hh reporter signal, replicate 1 = 82269; firefly Hh reporter signal, replicate 2 = 1.81e5; Renilla reference signal, replicate 1 = 1987; Renilla reference signal, replicate 2 = 7497; inactive.

After knock-down of CG44325 #2, the record shows firefly Hh reporter signal, replicate 1 = 87458; firefly Hh reporter signal, replicate 2 = 2.15e5; Renilla reference signal, replicate 1 = 2212; Renilla reference signal, replicate 2 = 8864; inactive. Chi scored firefly Hh reporter signal, replicate 1 = 1.06e5; firefly Hh reporter signal, replicate 2 = 72480; Renilla reference signal, replicate 1 = 4184; Renilla reference signal, replicate 2 = 3180; inactive. After knock-down of RasGAP1, the record shows firefly Hh reporter signal, replicate 1 = 19938; firefly Hh reporter signal, replicate 2 = 63043; firefly Hh reporter signal, replicate 3 = 57411; Renilla reference signal, replicate 1 = 7040; Renilla reference signal, replicate 2 = 4011; inactive. Silencing of l(2)05714 came out at: firefly Hh reporter signal, replicate 1 = 70845; firefly Hh reporter signal, replicate 2 = 40038; Renilla reference signal, replicate 1 = 3553; Renilla reference signal, replicate 2 = 2344; inactive. With knock-down of Rae1 the results were firefly Hh reporter signal, replicate 1 = 1.09e5; firefly Hh reporter signal, replicate 2 = 68514; Renilla reference signal, replicate 1 = 4204; Renilla reference signal, replicate 2 = 2499; inactive. After knock-down of dpa, the record shows firefly Hh reporter signal, replicate 1 = 79314; firefly Hh reporter signal, replicate 2 = 48777; Renilla reference signal, replicate 1 = 1888; Renilla reference signal, replicate 2 = 4346; inactive.
